Patent publication US20240262906A1 (WELLMARKER BIO, published 2024)
No constants are given. Whether binding was seen depends on the method and setting. Some results given as binding are weak or reduced against the parent protein; the word gives no strength.

Target: T1, IGSF1 overexpressed on cells (NCI-H292 IGSF1 O/E; HEK293E IGSF1 O/E) (human) (UniProt Q8N6C5)
T1 sequence: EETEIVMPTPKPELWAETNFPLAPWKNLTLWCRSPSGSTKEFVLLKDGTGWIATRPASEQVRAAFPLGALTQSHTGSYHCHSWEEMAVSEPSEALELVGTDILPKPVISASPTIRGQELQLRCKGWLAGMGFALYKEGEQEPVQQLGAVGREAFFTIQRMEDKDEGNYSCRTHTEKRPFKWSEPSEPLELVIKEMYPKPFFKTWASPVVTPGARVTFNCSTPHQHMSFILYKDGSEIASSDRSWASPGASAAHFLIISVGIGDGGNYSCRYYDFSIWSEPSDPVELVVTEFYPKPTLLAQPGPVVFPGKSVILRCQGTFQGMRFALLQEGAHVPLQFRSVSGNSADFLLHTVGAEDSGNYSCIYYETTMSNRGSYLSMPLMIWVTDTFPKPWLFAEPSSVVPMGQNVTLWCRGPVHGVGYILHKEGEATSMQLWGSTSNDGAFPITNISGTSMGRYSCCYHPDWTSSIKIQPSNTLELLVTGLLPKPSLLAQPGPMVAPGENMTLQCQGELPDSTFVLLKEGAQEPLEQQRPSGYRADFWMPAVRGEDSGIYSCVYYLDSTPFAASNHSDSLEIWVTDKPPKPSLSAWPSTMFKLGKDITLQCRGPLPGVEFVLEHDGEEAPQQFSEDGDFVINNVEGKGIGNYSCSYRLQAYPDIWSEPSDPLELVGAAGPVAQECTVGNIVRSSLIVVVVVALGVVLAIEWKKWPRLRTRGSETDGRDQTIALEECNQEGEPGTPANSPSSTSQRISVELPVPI
Experiment: flow cytometry on IGSF1 O/E cells (NCI-H292, HEK293E) transfected with scramble RNA; binding fell when IGSF1 was knocked down with shIGSF1

B1: WM-A1-3389 antibody (antibody, human IgG1, kappa, V domains shown)
VH: QVQLVQSGAEVKRPGSSVKVSCKASGGTFSTYAISWVRQAPGQGLEWMGRIIPFVGTVDYAQKFQDRVTITADKSTNTAYMELSSLRSEDTAVYYCVRDGGRSYFDSWGPGILVTVSS
VL: QFVLTQPPSVSAAPGQDVIISCSGNTSNIGSNLVSWFQQFPETAPKLLIYDNHKRPSGISDRFSGTKSGTSASLAISGLQSEDEADYYCVAWDDSLNGYVFGTGTKVTVLR
notes: Human antibody from a phage library, converted to whole IgG; also called anti-IGSF1 antibody
binding: binds
